From patent US11834451B2 (priority 2021, dated 2023)

Test system: EV-D68
Assay type: cell-based, enterovirus D68 (EV-D68)

| SMILES | SI50, Anti-EV-D68 US/KY/14-18953 | further results |
| --- | --- | --- |
| CC(C)n1ncc2c(C(=O)NCCN3CCCC3)cc(C3CC3)nc21 [Compound 7b, 6-cyclopropyl-1-(propan-2-yl)-N-[2-(pyrrolidin-1-yl)ethyl]-1H-pyrazolo[3,4-b]pyridine-4-carboxamide] | EC50 = 0.1 ± 0.1 CC50 = 46.5 ± 3.0 SI50 = 465.0 | – |
| CCN(CC)CCNC(=O)c1cc(C2CC2)nc2c1cnn2C(C)C [Compound 7c, 6-cyclopropyl-N-[2-(diethylamino)ethyl]-1-(propan-2-yl)-1H-pyrazolo[3,4-b]pyridine-4-carboxamide] | EC50 = 0.4 ± 0.2 CC50 = 89.9 ± 10.8 SI50 = 224.8 | – |
| CC(C)n1ncc2c(C(=O)NC3CNC3)cc(C3CC3)nc21 [Compound 7e, N-(azetidin-3-yl)-6-cyclopropyl-1-(propan-2-yl)-1H-pyrazolo[3,4-b]pyridine-4-carboxamide] | EC50 = 1.4 ± 0.1 CC50 = 91.6 ± 22.1 SI50 = 65.4 | – |
| CC(CN(C)C)NC(=O)c1cc(C2CC2)nc2c1cnn2C(C)C (stereo not drawn) [Compound 7f, 6-cyclopropyl-N-[1-(dimethylamino)propan-2-yl]-1-(propan-2-yl)-1H-pyrazolo[3,4-b]pyridine-4-carboxamide] | EC50 = 0.1 ± 0.2 CC50 = 72.6 ± 11.3 SI50 = 726.0 | – |
| CC(C)n1ncc2c(C(=O)NC3CCN(C)C3)cc(C3CC3)nc21 (stereo not drawn) [Compound 7g, 6-cyclopropyl-N-(1-methylpyrrolidin-3-yl)-1-(propan-2-yl)-1H-pyrazolo[3,4-b]pyridine-4-carboxamide] | EC50 = 0.1 ± 0.2 CC50 = 20.7 ± 1.9 SI50 = 207.0 | – |
| CNCCNC(=O)c1cc(C2CC2)nc2c1cnn2C(C)C [Compound 7h, 6-cyclopropyl-N-[2-(methylamino)ethyl]-1-(propan-2-yl)-1H-pyrazolo[3,4-b]pyridine-4-carboxamide] | EC50 = 0.2 ± 0.1 CC50 = 236.3 ± 20.5 SI50 = 1183.0 | SI50, EV-D68 US/IL/14-18952 (Clade B2): SI50 = 1183; SI50, EV-D68 US/IL/14-18956 (Clade B2): SI50 = 1183; SI50, EV-D68 US/KY/14-18953 (Clade D): SI50 = 1183; SI50, EV-D68 US/MO/14-18947 (Clade B1): SI50 = 1183; SI50, EV-D68 US/MO/14-18949 (Clade B1): SI50 = 1183 |
| CC(C)n1ncc2c(C(=O)NCCN)cc(C3CC3)nc21 [Compound 7i, N-(2-aminoethyl)-6-cyclopropyl-1-(propan-2-yl)-1H-pyrazolo[3,4-b]pyridine-4-carboxamide] | EC50 = 0.4 ± 0.2 CC50 = 259.3 ± 11.3 SI50 = 648.3 | – |
| CC(CN)NC(=O)c1cc(C2CC2)nc2c1cnn2C(C)C (stereo not drawn) [Compound 7j, N-(1-aminopropan-2-yl)-6-cyclopropyl-1-(propan-2-yl)-1H-pyrazolo[3,4-b]pyridine-4-carboxamide] | EC50 = 0.3 ± 0.1 CC50 = 112.9 ± 8.7 SI50 = 376.3 | – |
| CCN(CC)CCCNC(=O)c1cc(C2CC2)nc2c1cnn2C(C)C [Compound 7k, 6-cyclopropyl-N-[3-(diethylamino)propyl]-1-(propan-2-yl)-1H-pyrazolo[3,4-b]pyridine-4-carboxamide] | EC50 = 1.9 ± 0.2 CC50 = 43.8 ± 1.3 SI50 = 23.1 | – |
| CC(C)n1ncc2c(C(=O)NCCCN(C)C)cc(C3CC3)nc21 [Compound 7l, 6-cyclopropyl-N-[3-(dimethylamino)propyl]-1-(propan-2-yl)-1H-pyrazolo[3,4-b]pyridine-4-carboxamide] | EC50 = 1.2 ± 0.3 CC50 = 74.1 ± 2.5 SI50 = 61.8 | – |
| CNCCCNC(=O)c1cc(C2CC2)nc2c1cnn2C(C)C [Compound 7m, 6-cyclopropyl-N-[3-(methylamino)propyl]-1-(propan-2-yl)-1H-pyrazolo[3,4-b]pyridine-4-carboxamide] | EC50 = 1.7 ± 0.2 CC50 = 183.0 ± 20.1 SI50 = 107.6 | – |
| CC(C)c1cc(C(=O)NCCN(C)C)c2cnn(C(C)C)c2n1 [Compound 10a, N-[2-(dimethylamino)ethyl]-1,6-bis(propan-2-yl)-1H-pyrazolo[3,4-b]pyridine-4-carboxamide] | EC50 = 0.1 ± 0.2 CC50 = 160.9 ± 12.8 SI50 = 1609.0 | SI50, EV-D68 US/IL/14-18952 (Clade B2): SI50 = 1787.8; SI50, EV-D68 US/IL/14-18956 (Clade B2): SI50 = 2298.6; SI50, EV-D68 US/KY/14-18953 (Clade D): SI50 = 1609; SI50, EV-D68 US/MO/14-18947 (Clade B1): SI50 = 2298.6; SI50, EV-D68 US/MO/14-18949 (Clade B1): SI50 = 2011.3 |
| CC(C)c1cc(C(=O)NCCO)c2cnn(C(C)C)c2n1 [Compound 10b, N-(2-hydroxyethyl)-1,6-bis(propan-2-yl)-1H-pyrazolo[3,4-b]pyridine-4-carboxamide] | EC50 = 9.8 ± 2.3 CC50 >100.0 SI50 >10.2 | – |
| CC(CN(C)C)NC(=O)c1cc(C(C)C)nc2c1cnn2C(C)C (stereo not drawn) [Compound 10c, N-[1-(dimethylamino)propan-2-yl]-1,6-bis(propan-2-yl)-1H-pyrazolo[3,4-b]pyridine-4-carboxamide] | EC50 = 0.1 ± 0.0 CC50 >100.0 SI50 >1000.0 | – |
| CNCCNC(=O)c1cc(C(C)C)nc2c1cnn2C(C)C [Compound 10d, N-[2-(methylamino)ethyl]-1,6-bis(propan-2-yl)-1H-pyrazolo[3,4-b]pyridine-4-carboxamide] | EC50 = 0.4 ± 0.2 CC50 >100.0 SI50 >250.0 | – |
| CC(C)c1cc(C(=O)NCCN)c2cnn(C(C)C)c2n1 [Compound 10e, N-(2-aminoethyl)-1,6-bis(propan-2-yl)-1H-pyrazolo[3,4-b]pyridine-4-carboxamide] | EC50 = 0.6 ± 0.2 CC50 = 169.5 ± 8.6 SI50 = 282.5 | – |

| SMILES | SI50, Anti-EV-D68 US/KY/14-18953 | further results |
| --- | --- | --- |
| CC(CN)NC(=O)c1cc(C(C)C)nc2c1cnn2C(C)C (stereo not drawn) [Compound 10f, N-(1-aminopropan-2-yl)-1,6-bis(propan-2-yl)-1H-pyrazolo[3,4-b]pyridine-4-carboxamide] | EC50 = 0.4 ± 0.3 CC50 = 118.1 ± 15.4 SI50 = 295.3 | – |
| CC(C)n1ncc2c(C(=O)NCCN(C)C)cc(C(C)(C)C)nc21 [Compound 11a, 6-tert-butyl-N-[2-(dimethylamino)ethyl]-1-(propan-2-yl)-1H-pyrazolo[3,4-b]pyridine-4-carboxamide] | EC50 = 0.1 ± 0.0 CC50 = 31.4 ± 7.1 SI50 = 314.0 | – |
| CC(C)n1ncc2c(C(=O)NCCN)cc(C(C)(C)C)nc21 [Compound 11b, N-(2-aminoethyl)-6-tert-butyl-1-(propan-2-yl)-1H-pyrazolo[3,4-b]pyridine-4-carboxamide] | EC50 = 0.1 ± 0.1 CC50 = 24.6 ± 3.1 SI50 = 246.0 | – |
| Cc1cc(C(=O)NCCN(C)C)c2cnn(C(C)C)c2n1 [Compound 12a, N-[2-(dimethylamino)ethyl]-6-methyl-1-(propan-2-yl)-1H-pyrazolo[3,4-b]pyridine-4-carboxamide] | EC50 = 0.4 ± 0.2 CC50 = 112.3 ± 19.6 SI50 = 280.8 | – |
| Cc1cc(C(=O)NC2CCN(C)C2)c2cnn(C(C)C)c2n1 (stereo not drawn) [Compound 12b, 6-methyl-N-(1-methylpyrrolidin-3-yl)-1-(propan-2-yl)-1H-pyrazolo[3,4-b]pyridine-4-carboxamide] | EC50 = 1.8 ± 0.2 CC50 >300.0 SI50 >166.7 | – |
| Cc1cc(C(=O)NC2CN(C)C2)c2cnn(C(C)C)c2n1 [Compound 12c, 6-methyl-N-(1-methylazetidin-3-yl)-1-(propan-2-yl)-1H-pyrazolo[3,4-b]pyridine-4-carboxamide] | EC50 = 11.3 ± 1.6 CC50 >300.0 SI50 >26.5 | – |
| CNCCNC(=O)c1cc(C)nc2c1cnn2C(C)C [Compound 12d, 6-methyl-N-(methylamino)ethyl-1-(propan-2-yl)-1H-pyrazolo[3,4-b]pyridine-4-carboxamide] | EC50 = 2.3 ± 0.2 CC50 >300.0 SI50 >130.4 | – |
| Cc1cc(C(=O)NCCN)c2cnn(C(C)C)c2n1 [Compound 12e, N-(2-aminoethyl)-6-methyl-1-(propan-2-yl)-1H-pyrazolo[3,4-b]pyridine-4-carboxamide] | EC50 = 4.7 ± 0.6 CC50 >300.0 SI50 >63.8 | – |
| Cc1cc(C(=O)NCCN(C)C)c2cnn(C3CCCC3)c2n1 [Compound 13, 1-cyclopentyl-N-[2-(dimethylamino)ethyl]-6-methyl-1H-pyrazolo[3,4-b]pyridine-4-carboxamide] | EC50 = 11.1 ± 0.3 CC50 = 88.4 ± 18.5 SI50 = 8.0 | – |
| CCCn1ncc2c(C(=O)NCCN(C)C)cc(C)nc21 [Compound 14, N-[2-(dimethylamino)ethyl]-6-methyl-1-propyl-1H-pyrazolo[3,4-b]pyridine-4-carboxamide] | EC50 = 48.4 ± 2.2 CC50 = 218.6 ± 25.3 SI50 = 4.5 | – |
| CCn1ncc2c(C(=O)NCCN(C)C)cc(C)nc21 [Compound 15a, N-[2-(dimethylamino)ethyl]-1-ethyl-6-methyl-1H-pyrazolo[3,4-b]pyridine-4-carboxamide] | EC50 = 18.3 ± 0.5 CC50 >300 SI50 >16.4 | – |
| CCn1ncc2c(C(=O)NCCNC)cc(C)nc21 [Compound 15b, 1-ethyl-6-methyl-N-[2-(methylamino)ethyl]-1H-pyrazolo[3,4-b]pyridine-4-carboxamide] | EC50 = 58.4 ± 1.9 CC50 >300 SI50 >5.1 | – |
| CCn1ncc2c(C(=O)NCCN(C)C)cc(C3CC3)nc21 [Compound 16, 6-cyclopropyl-N-[2-(dimethylamino)ethyl]-1-ethyl-1H-pyrazolo[3,4-b]pyridine-4-carboxamide] | EC50 = 1.7 ± 0.2 CC50 = 263.2 ± 21.1 SI50 = 154.8 | – |
| CN(C)CCNC(=O)c1cc(C2CC2)nc2c1cnn2C [Compound 17, 6-cyclopropyl-N-[2-(dimethylamino)ethyl]-1-methyl-1H-pyrazolo[3,4-b]pyridine-4-carboxamide] | EC50 = 9.8 ± 1.5 CC50 >300 SI50 >30.6 | – |
| Cc1nn(C(C)(C)C)c2nc(C3CC3)cc(C(=O)NCCN(C)C)c12 [Compound 18a, 1-tert-butyl-6-cyclopropyl-N-[2-(dimethylamino)ethyl]-3-methyl-1H-pyrazolo[3,4-b]pyridine-4-carboxamide] | EC50 = 0.8 ± 0.2 CC50 = 45.2 ± 27.6 SI50 = 56.5 | – |
| CNCCNC(=O)c1cc(C2CC2)nc2c1c(C)nn2C(C)(C)C [Compound 18b, 1-tert-butyl-6-cyclopropyl-3-methyl-N-[2-(methylamino)ethyl]-1H-pyrazolo[3,4-b]pyridine-4-carboxamide] | EC50 = 1.1 ± 0.5 CC50 = 31.9 ± 8.2 SI50 = 29.0 | – |
